In article PMC5500506:
For at least one entry, the source does not settle the construct or the ends of the probe. Negatives hold for the conditions tested. Protein sequences can lack the tags named with them.

Tested on: T1, GdmRIII (Streptomyces autolyticus CGMCC0516)
T1 sequence (looked up, limits assumed): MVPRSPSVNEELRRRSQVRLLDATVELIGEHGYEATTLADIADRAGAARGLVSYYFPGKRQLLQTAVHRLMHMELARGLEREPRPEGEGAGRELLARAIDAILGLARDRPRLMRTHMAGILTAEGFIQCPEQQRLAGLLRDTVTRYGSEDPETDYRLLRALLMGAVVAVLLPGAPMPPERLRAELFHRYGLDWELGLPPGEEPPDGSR
Assay: competition EMSA
Settings: 50-fold excess vs gdmM, gdmN (1.5 uM protein) and elaF (1.2 uM) probes; EMSA: 10 mM Tris-HCl pH 7.5, 50 mM NaCl, 10 mM MgCl2, 1 mM EDTA, 1 mM DTT, 5% glycerol, 0.1 ug/ul poly(dI-dC), 0.3 nM DNA; temperature not given; recombinant protein; probe letters rebuilt from the primers and the genome

## TGACACGGCGCGCTCCGGAAGAGGCGACCGCCACGAAGCGGAATGGCCGGAACGAGGATACGCCACGGCATTCATCGCCTCTTCGCTTTAGGGGCACGCCACCTCGATAGGGGGTTGACCGTGCGGCGCGCGTCCCGGATAACTGAACAGCGCGGTGTGCTGGACGAGATGCGGTGGACCGGGTTAGGGGGCGGAGGTTCCGGTAGGGGTTGATGCTGATGTGGACGCACTGATGGAATCGTTTCCCGATCAATATTCGGTCTGATTCAAGGATCGCGAGTCCATATTTCGTCGACCTCGATCGGGGACCCTCAAC (double strand) [non-specific competitor]
  binding result: no binding
